Data from paper PMC10564737, “Structure-based design of a phosphotyrosine-masked covalent ligand targeting the E3 ligase SOCS2” (Nature Communications, 2023).
“And” between values parts separate entries of the source, which are not always exact repeats. Identical values can stand only once. This continues a long series; more values of the same kind are listed elsewhere.

By UniProt entry, the sequences of proteins in these tests, tags left out. Residues count along the entry.
UniProt O14508, 32-198: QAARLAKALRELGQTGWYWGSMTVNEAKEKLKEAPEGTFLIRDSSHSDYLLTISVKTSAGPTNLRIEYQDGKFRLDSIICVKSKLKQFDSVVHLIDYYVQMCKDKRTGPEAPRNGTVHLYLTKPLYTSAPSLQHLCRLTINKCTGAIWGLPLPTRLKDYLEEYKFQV

Target: T1, SBC2 (Homo sapiens, UniProt O14508)
T1 construct: SOCS2 (amino acids 32–198); His6 (N, cleaved yes); made in house; host or cells: E. coli BL21(DE3)
Assay: Covalent fluorescence polarization (FP) probe displacement assay
Assay type: binding
Description: With the specific covalent modification of Cys111 established, we decided to fully characterize MN551 as a covalent SOCS2 inhibitor. […] (Fig. 2g, h, Supplementary Fig. 9). Due to the covalent nature of the competing inhibitor, a time-dependent reduction in the fraction of protein-bound probe is observed. […] This value illustrates reasonable specificity for a covalent inhibitor, with nonetheless scope for future optimization. In addition to characterizing the kinetic covalency parameters, we have also assessed the stability of the MN551 by monitoring its reactivity (half-life >70 min) with reduced glutathione (GSH) (Supplementary Fig. 10)[35].
To monitor the SBC2-ligand binding kinetics we designed a fluorescein-labeled small-molecule probe - compound 26. The fluorescence polarization (anisotropy) of a threefold serial dilution of 50 µM SBC2 in 10 nM of the probe in 100 mM HEPES pH 7.5, 50 mM NaCl, 0.5 mM TCEP, 2% DMSO was measured to determine the KL (Supplementary Fig. 9A) (BMG Labtech PHERAstar – firmware v1.33). Protein titration and the curves were fitted using GraphPad Prism 9, using one-site fitting models to determine the probe binding constant, KL. Samples were run in triplicate in 384 well plates, using a total volume per well of 16 μL. The bound fraction of the probe is measure using the equation:1 Fb=Af−A/Af−Ab Where,
A time-dependent reduction in probe anisotropy were measured for a 2-fold serial dilution of […] compound MN551 in 10 nM probe +300 μM SBC2. To determine the initial reversible binding affinity, the initial bound fraction of the probe at time = 0, Fbo (the y-intercept in Fb v/s Time plot, Supplementary Fig. 9B) was plotted against MN551 concentration, and the obtained IC50 is then converted to Ki (Supplementary Fig. 9C)[17]. The slope from Fb versus time graph when divided by Fbo gives rate of covalency, kobs. A plot of kobs v/s MN551 concentration using Michaelis–Menten model of GraphPad Prism 9, provides the parameters kinact (maximum potential rate of inactivation) and KI (concentration of MN551 at which kobs = kinact/2) (Supplementary Fig. 9D, E).
The observed first-order rate constant, kobs is related to KI and kinact by the equation:2 kobs=kinactI/KI+I
At [I]«[KI] the above equation is converted to3 […]
The slope from the plot of kobs against concentration of MN551 gives us the covalent efficiency parameter kinact/KI (Supp Fig. 9F)[30],[33].

[1] = MN551 12.207 nM, Cycle 8 (35 min)
[2] = MN551 12.207 nM, Cycle 9 (40 min)
[3] = MN551 12.207 nM, Cycle 10 (45 min)
[4] = MN551 12.207 nM; Cycle 6 (25 min)
[5] = MN551 12.207 nM; Cycle 7 (30 min)
[6] = MN551 12.207 nM; Cycle 8 (35 min)
[7] = MN551 12.207 nM; Cycle 9 (40 min)
[8] = MN551 12.207 nM; Cycle 10 (45 min)
[9] = MN551 12.207 nM; Cycle 12 (55 min); n=1
[10] = MN551 12.207 nM; Cycle 13 (60 min); n=1
[11] = MN551 12.207 nM; Cycle 14 (65 min); n=1
[12] = MN551 12.207 nM; Cycle 15 (70 min); n=1
[13] = MN551 12.207 nM; Cycle 16 (75 min); n=1
[14] = MN551 12.599 nM, Cycle 8 (35 min)
[15] = MN551 12.599 nM, Cycle 9 (40 min)
[16] = MN551 12.599 nM, Cycle 10 (45 min)
[17] = MN551 12.599 nM, Cycle 11 (50 min)
[18] = MN551 12.599 nM, Cycle 15 (70 min), n=1
[19] = MN551 12.599 nM, Cycle 16 (75 min), n=1
[20] = MN551 12.599 nM, Cycle 17 (80 min), n=1
[21] = MN551 12.599 nM; Cycle 6 (25 min)
[22] = MN551 12.599 nM; Cycle 7 (30 min)

O=C(CCl)Nc1cccc(CNC(=O)[C@H](Cc2ccc(OP(=O)(O)O)cc2)NC(=O)Cc2ccc(F)cc2)c1 [MN551]
Anisotropy (12.207 nM MN551, Cycle 6 (25 min)): 283 | Anisotropy (12.599 nM MN551, Cycle 5 (20 min)): 275.6 | Anisotropy (34.5716 nM MN551, Cycle 2 (5 min)): 284.7 | Anisotropy (34.5716 nM MN551, Cycle 5 (20 min)): 278.5 | Anisotropy (48.4003 nM MN551, Cycle 2 (5 min)): 287 | Anisotropy (67.7604 nM MN551, Cycle 6 (25 min)): 279.2 | Anisotropy (260.308 nM MN551, Cycle 3 (10 min)): 275.8 | Anisotropy (714.286 nM MN551, Cycle 6 (25 min)): 259.7 | Anisotropy (50000 nM MN551, Cycle 5 (20 min)): 180 | Fb (MN551 12.207 nM, Cycle 7 (30 min)): 0.8762 and 0.9543 and 0.9614 | Anisotropy based on Raw Data (485) [1]: 280.2 and 279.7 and 276 | Fb [1]: 0.873 and 0.9618 and 0.9377 | Anisotropy based on Raw Data (485) [2]: 278.9 and 277.7 | Fb [2]: 0.8547 and 0.972 and 0.9659 | Anisotropy based on Raw Data (485) [3]: 278.9 and 279.3 and 275.1 | Fb [3]: 0.8539 and 0.9632 and 0.9592 | Anisotropy based on Raw Data (485) (MN551 12.207 nM, Cycle 11 (50 min)): 277.1 and 278.1 and 275.7 | Anisotropy (MN551 12.207 nM, Cycle 13 (60 min), n=1): 277.3 and 276.9 and 279 | Anisotropy (MN551 12.207 nM, Cycle 14 (65 min), n=1): 276 and 276.8 and 279.6 | Anisotropy (MN551 12.207 nM, Cycle 15 (70 min), n=1): 277.3 and 276.2 and 278.2 | Anisotropy (MN551 12.207 nM, Cycle 17 (80 min), n=1): 276 and 273.5 and 277 | Fb, fraction bound (MN551 12.207 nM; Cycle 3 (10 min)): 1.009 and 1.005 and 1.027 | Fb, fraction bound (MN551 12.207 nM; Cycle 4 (15 min)): 0.9952 and 0.99 and 0.9945 | Fb, fraction bound (MN551 12.207 nM; Cycle 5 (20 min)): 0.9814 and 1.012 and 0.9945 | Anisotropy data 485,520,520 [4]: 276.1 and 280.2 and 280.4 | Fb [4]: 0.9636 and 0.9815 and 0.98 | Fb, fraction bound [4]: 0.9962 and 1.035 and 1.011 | Anisotropy [5]: 280 and 281.1 and 284.4 | Anisotropy data 485,520,520 [5]: 273.8 and 278 and 276 | Fb [5]: 0.9861 and 0.9826 and 0.9875 and 0.9981 and 1.0131 and 1.041 | Anisotropy [6]: 279 and 281.2 and 281.4 | Anisotropy data 485,520,520 [6]: 273.1 and 278.2 and 278.4 | Fb [6]: 0.9611 and 0.9753 and 1.003 and 0.9952 and 1.006 and 1.0169 | Anisotropy [7]: 278.8 and 281.2 and 281.3 | Anisotropy data 485,520,520 [7]: 273.5 and 276.3 and 274.8 | Fb [7]: 0.989 and 0.9708 and 0.9746 and 0.9802 and 1.022 and 1.027 | Anisotropy [8]: 279.5 and 278.1 and 281.2 | Anisotropy data 485,520,520 [8]: 272.2 and 279 and 274.1 | Fb [8]: 0.9929 and 1.007 (2×) and 0.9798 and 0.9971 and 1.029 | Anisotropy (MN551 12.207 nM; Cycle 11 (50 min); n=1): 272.7 and 277 and 274.7 | Anisotropy (MN551 12.207 nM; Cycle 12 (55 min)): 277.6 and 277.2 and 280.3 | Anisotropy [9]: 273.5 and 276.9 and 272 | Anisotropy based on Raw Data (485) [9]: 276.3 and 276.5 and 275.2 | Anisotropy [10]: 272.6 and 275.5 and 274.9 | Anisotropy based on Raw Data (485) [10]: 275.8 and 277.2 and 270.4 | Anisotropy [11]: 271 and 274.1 and 272.7 | Anisotropy based on Raw Data (485) [11]: 275.3 and 275.1 and 271.8 | Anisotropy [12]: 268.7 and 270.7 and 271.4 | Anisotropy based on Raw Data (485) [12]: 275.5 and 273.3 and 273.2 | Anisotropy [13]: 275.3 and 273.7 and 276.8 | Anisotropy based on Raw Data (485) [13]: 272.6 and 274.8 and 271.8 | Anisotropy data 485,520,520 (MN551 12.207 nM; Cycle 19 (90 min); n=1): 272.5 and 274.4 and 274.1 | Anisotropy data 485,520,520 (MN551 12.207 nM; Cycle 20 (95 min); n=1): 273.7 and 274.7 and 273.8 | Fb (MN551 12.599 nM, Cycle 7 (30 min)): 0.9121 and 0.9206 and 0.9551 | Anisotropy based on Raw Data (485) [14]: 271.3 and 272.5 and 269.8 | Fb [14]: 0.9023 and 0.9183 and 0.91 | Anisotropy based on Raw Data (485) [15]: 271.7 and 273.9 and 270.9 | Fb [15]: 0.9192 and 0.9205 and 0.9283 | Anisotropy based on Raw Data (485) [16]: 270.9 and 269.5 | Fb [16]: 0.9269 and 0.9411 and 0.952 | Anisotropy based on Raw Data (485) [17]: 269 and 270.1 and 268.2 | Fb [17]: 0.9222 and 0.9146 and 0.9293 | Anisotropy (MN551 12.599 nM, Cycle 13 (60 min), n=1): 277.9 and 274.8 and 274.2 | Anisotropy (MN551 12.599 nM, Cycle 14 (65 min), n=1): 278.8 and 276.4 and 274.2 | Anisotropy [18]: 275.5 and 274.4 and 272.9 | Normalised anisotropy (0 nM MN551 = 1, free probe = 0) [18]: 1.027 and 0.9981 and 0.9952 | Anisotropy [19]: 277.4 and 276.1 and 272.3 | Anisotropy based on Raw Data (485) [19]: 269.5 and 268.6 and 265.3 | Normalised anisotropy (0 nM MN551 = 1, free probe = 0) [19]: 1.018 and 1.031 and 0.9885 | Anisotropy [20]: 274.3 and 273.6 and 271 | Normalised anisotropy (0 nM MN551 = 1, free probe = 0) [20]: 1.014 and 0.999 and 1.005 | Fb, fraction bound (MN551 12.599 nM; Cycle 3 (10 min)): 1.02 and 1.03 and 1.008 | Fb, fraction bound (MN551 12.599 nM; Cycle 4 (15 min)): 1.038 and 1.003 and 1.011 | Fb, fraction bound (MN551 12.599 nM; Cycle 5 (20 min)): 1.026 and 1.001 and 1.008 | Anisotropy data 485,520,520 [21]: 275.2 and 272.5 and 273.1 | Fb [21]: 0.9676 and 0.9735 and 1.0203 | Fb, fraction bound [21]: 1.025 and 1.019 and 1.007 | Anisotropy [22]: 283.2 and 280.9 and 281 | Anisotropy data 485,520,520 [22]: 273.5 and 268.7 and 271.9 | Fb [22]: 0.9678 and 0.9687 and 1.015 and 1.006 and 1.012 and 1.035
